{"source": "PubChem BioAssay AID2685", "about": "(National Center for Advancing Translational Sciences (NCATS), 2010)", "note": "Screen size: about 320,000 compounds; about 2,100 (0.66%) were called active. Inconclusive means that the source gave no clear call. Such entries were picked first, then a sample of the others. Calls follow the shape of the dose curve; as a rule, active = well fitted inhibition curve with a large enough effect in the signal ratio, with a control signal flat (not every such curve was filed as active); inconclusive = small, poorly fitted or top-dose-only effect, or effect the other way, or a change in a side signal; inactive = flat fitted curve, though single readings scatter; the % refers to the signal ratio. Potencies beside an inconclusive call are fits to weak or partial responses and may not hold up. % is scaled to controls: 0 for no effect and ±100 for the full control effect; potency is read from the fitted curve at half-maximal effect."}
{"assay": "qHTS Assay for Lipid Storage Modulators in Drosophila S3 Cells", "details": "BODIPY lipid droplet fluorescence, 18-24 h, cells fed with added oleic acid; lipid storage change, negative = inhibition: at 46.1 µM (top of the series) unless noted", "how_it_was_run": "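Drosophila S3 cells loaded with oleic acid (400 uM, as added) and compounds at several concentrations; lipid droplets imaged by 488-nm laser-scanning cytometry, 500–530 nm intensity and object ratio to cell channel. Percent activity normalized to 20 uM Triacsin C.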"}
{"smiles": "O=C(O)CSc1ccc(NC(=O)Nc2ccccc2F)cc1", "Potency": "inconclusive: 6.51 µM [falling, single point]"}
{"smiles": "O=C(O)c1ccc(C[n+]2c(-c3ccccc3)csc2Nc2ccccc2)cc1", "lipid storage change, negative = inhibition": "inconclusive: 20.3%"}
{"smiles": "CCc1cc(CNC(=O)C2CCC(=O)N(CCc3cccc(F)c3)C2)on1", "note": "(centres undefined)", "Potency": "inconclusive: 1.3 µM [activator, partial curve]"}
{"smiles": "NC(=O)CCn1c(C(=O)c2ccc(Cl)cc2)c2ccccc2[n+]1[O-]", "lipid storage change, negative = inhibition": "inconclusive: 36%"}
{"smiles": "O=S(=O)(Nc1ccc(S(=O)(=O)N2CCCCCC2)cc1)c1cccs1", "lipid storage change, negative = inhibition": "inconclusive: 147%"}
{"smiles": "CCn1c(COc2ccccc2C)nnc1SCC(=O)NC1CCCC1", "lipid storage change, negative = inhibition": "inconclusive: 17%"}
{"smiles": "Cn1c(=O)c2c(nc(N3CCc4ccccc4C3)n2Cc2ccc(Br)cc2)n(C)c1=O", "Potency": "inconclusive: 0.82 µM [activator, partial curve]"}
{"smiles": "Cc1ccc(C(=O)Nc2nc(-c3ccc([N+](=O)[O-])cc3)cs2)o1", "Potency": "inconclusive: 29.1 µM [rising, single point]"}
{"smiles": "Brc1ccc(/C=C/C=N/Nc2nc3ccccc3s2)cc1", "lipid storage change, negative = inhibition": "inconclusive: -19.7%"}
{"smiles": "COC(=O)c1ccc(C(NC(=O)OCc2ccccc2)/C(F)=C/[C@@H](C)C(=O)NCc2ccc(OC)c(OC)c2)cc1", "note": "(some centres undefined)", "lipid storage change, negative = inhibition": "inconclusive: -2.28%"}
{"smiles": "Cc1ccc(Cn2ncc3c(N4CCOCC4)ncnc32)cc1", "lipid storage change, negative = inhibition": "inconclusive: 5.5%"}
{"smiles": "O=[N+]([O-])c1ccccc1Nc1ccccc1", "lipid storage change, negative = inhibition": "inconclusive: -67.6%"}
{"smiles": "CCOc1ccc2[nH]c(=O)c(CN(Cc3nnnn3Cc3ccco3)C3CCCCC3)cc2c1", "lipid storage change, negative = inhibition": "inconclusive: 87.4%"}
{"smiles": "CCCCN(C)CCCNC(=O)c1cn(CC)c2ccc(S(=O)(=O)N3CCOCC3)cc2c1=O", "Potency": "inconclusive: 0.651 µM [falling, single point]"}
{"smiles": "COCCn1cc(C(=S)N2CCOCC2)c2ccccc21", "lipid storage change, negative = inhibition": "inconclusive: 0.791%"}
{"smiles": "CCCC[n+]1ccn(C2=C([O-])c3ccccc3C(=O)/C2=N\\S(=O)(=O)c2ccc(Cl)cc2)c1", "Potency": "inconclusive: 32.6 µM [falling, partial curve, poor fit]"}
{"smiles": "Cc1nn(CC(=O)NCCc2ccccc2)c(=O)c2ccccc12", "lipid storage change, negative = inhibition": "inconclusive: 20%"}
{"smiles": "Cc1ccc(S(=O)(=O)N2CCN(C(=O)C(C)Cn3nc(C)c(C)c3C)CC2)cc1", "note": "(centres undefined)", "Potency": "inconclusive: 29.1 µM [activator, single point]"}
{"smiles": "O=S(Cc1ccc(Br)cc1)Cc1nnc(SCc2ccc(Br)cc2)n1-c1ccccc1", "note": "(centres undefined)", "lipid storage change, negative = inhibition": "inconclusive: -8.82%"}
{"smiles": "CC1=CC(=O)C=C(C)C1=NOC(=O)c1cccc([N+](=O)[O-])c1", "Potency": "inconclusive: 29.1 µM [activator, single point]"}
{"smiles": "CCOCCCNc1ccc(-c2ccccc2)nn1", "Potency": "inconclusive: 2.31 µM [activator, partial curve, poor fit]"}
{"smiles": "COc1cc(OC)c(S(=O)(=O)N2CCN(C(=O)c3ccccc3F)CC2)cc1NC(C)=O", "lipid storage change, negative = inhibition": "inconclusive: 21.5%"}
{"smiles": "COc1ccc(C2=NS(=O)(=O)N(C)C(C(=O)Nc3ccc(OC)c(OC)c3)=C2)cc1", "lipid storage change, negative = inhibition": "inconclusive: -13.9%"}
{"smiles": "Cc1ccc(-c2nnc(SCC#N)n2N)cc1", "lipid storage change, negative = inhibition": "inactive"}
{"smiles": "CCOC(=O)c1sc2nc(SC)nc(-c3ccccc3)c2c1N", "Potency": "inconclusive: 0.13 µM [activator, single point]"}
{"smiles": "COC(=O)CN1C(=O)[C@H]2[C@@H](c3ccc(C)o3)N3C(=O)CN(CCO)C(=O)[C@@]3(Cc3ccccc3)[C@H]2C1=O", "lipid storage change, negative = inhibition": "inconclusive: -29.1%"}
{"smiles": "CCOC(=O)c1c(NC(=O)CSc2ncccn2)sc2c1CC(C)(C)NC2(C)C", "Potency": "inconclusive: 6.51 µM [activator, single point]"}
{"smiles": "CC(C)Oc1ccc(C(=O)NCCCNC(=O)c2cccnc2)cc1", "Potency": "inconclusive: 29.1 µM [falling, partial curve, poor fit]"}
{"smiles": "CCC(=O)NC1(Cc2ccc(O)cc2)CCCCC1", "lipid storage change, negative = inhibition": "inactive"}
{"smiles": "Cc1ccc(CC(=O)O/N=C(\\N)c2ccncc2)cc1", "Potency": "inconclusive: 0.184 µM [activator, partial curve]"}
{"smiles": "CC1CCCCN1c1nnc(NC(=O)Cn2c(=O)oc3ccccc32)s1", "note": "(centres undefined)", "lipid storage change, negative = inhibition": "inconclusive: 1.64%"}
{"smiles": "CC(C)Oc1nc(-c2ccccc2O)nc2ccccc12", "Potency": "inconclusive: 0.92 µM [activator, full curve, poor fit]"}
{"smiles": "Cc1ccc(S(=O)(=O)N(C)C)cc1NC(=O)CN1C(=O)NC2(CCCCCCC2)C1=O", "lipid storage change, negative = inhibition": "inconclusive: 13.4%"}
{"smiles": "CSc1ccccc1OCc1cc(C(=O)NCCN2CCCC(O)C2)no1", "note": "(centres undefined)", "Potency": "inconclusive: 3.66 µM [activator, full curve]"}
{"smiles": "O=C(Nc1ccc(Cl)cc1)Nc1ccc2c(c1)N1CCN=C1S2", "Potency": "inconclusive: 1.16 µM [activator, partial curve]"}
{"smiles": "CCCCc1cc(=O)oc2c(C)c(OCC(=O)NCCN3CCOCC3)ccc12", "Potency": "active: 8.2 µM"}
{"smiles": "CCCCn1c(N)c(N(CCOC)C(=O)C(C)Oc2ccc(Cl)cc2)c(=O)[nH]c1=O", "note": "(centres undefined)", "Potency": "inconclusive: 29.1 µM [cytotoxic, single point]"}
{"smiles": "NC(=O)CN(c1ccc(Oc2ccccc2)cc1)S(=O)(=O)c1ccccc1", "lipid storage change, negative = inhibition": "inconclusive: -52.1%"}
{"smiles": "C=CCOc1ccc(-c2nc3c(c(=O)[nH]c(=O)n3CCC)n2CCCC)cc1", "Potency": "active: 2.91 µM"}
{"smiles": "N#CC1(NC(=O)CSc2nnc(Cc3ccccc3)o2)CCCCC1", "Potency": "inconclusive: 25.9 µM [falling, partial curve, poor fit]"}
{"smiles": "CCOc1ccc(C(=O)NCC(=O)N2CCCCCCC2)cc1", "Potency": "inconclusive: 0.0046 µM [activator, full curve, poor fit]"}
{"smiles": "O=C1c2sc3nc4c(c(=O)n3c2C(=O)N1c1ccccc1)CCC4", "Potency": "inconclusive: 29.1 µM [activator, single point]"}
{"smiles": "CC(/C=N/NC(=O)c1n[nH]c2c1CCC2)=C\\c1ccccc1", "Potency": "inconclusive: 29.1 µM [cytotoxic, single point]"}
{"smiles": "O=C(CN1CCN(S(=O)(=O)c2ccc(Br)cc2)CC1)N/N=C/c1ccc(Cl)c([N+](=O)[O-])c1", "Potency": "inconclusive: 20.6 µM [falling, partial curve, poor fit]"}
